Data published in patent publication US20250163186A1.
No constants are given. Whether binding was seen depends on the method and setting. Binding calls can cover weak binding; strength is not graded here. Where a sequence is shown, tags or fusion partners need not be part of it.

Target: human IgA (Athensresearch, 16-16-090701) (human)
Assay: ELISA, plate-coated immunoglobulin

B1: cx10710, comprising IgG1 SELF Fc (antibody, V domains shown)
VH: QVQLQESGPGLVKPSETLSLTCAVSGYSITSGYSWNWIRQPPGKKLEWIGSITYDGSSNYNPSLKSRVTISRDTSKNQFSLKLSSVTAADTAVYYCARGSHYFGHWHFAVWGAGTLVTVSS
VL: DIQLTQSPSSLSASVGDRVTITCRASQSVDYDGDSYMNWYQQKPGQPPKLLIYAASYLGSEIPARFSGSGSGTDFTLTISSLQPEDFATYYCQQSHEDPYTFGAGTKLEIKR
  binding: binds
